# According to PMC6346685:
# Amino acid sequences for entries named in this document (tags omitted). Residues count along the entry.
# UniProt P01275, residues 53-81: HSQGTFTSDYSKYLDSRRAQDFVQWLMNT
# UniProt P20029, residues 20-655: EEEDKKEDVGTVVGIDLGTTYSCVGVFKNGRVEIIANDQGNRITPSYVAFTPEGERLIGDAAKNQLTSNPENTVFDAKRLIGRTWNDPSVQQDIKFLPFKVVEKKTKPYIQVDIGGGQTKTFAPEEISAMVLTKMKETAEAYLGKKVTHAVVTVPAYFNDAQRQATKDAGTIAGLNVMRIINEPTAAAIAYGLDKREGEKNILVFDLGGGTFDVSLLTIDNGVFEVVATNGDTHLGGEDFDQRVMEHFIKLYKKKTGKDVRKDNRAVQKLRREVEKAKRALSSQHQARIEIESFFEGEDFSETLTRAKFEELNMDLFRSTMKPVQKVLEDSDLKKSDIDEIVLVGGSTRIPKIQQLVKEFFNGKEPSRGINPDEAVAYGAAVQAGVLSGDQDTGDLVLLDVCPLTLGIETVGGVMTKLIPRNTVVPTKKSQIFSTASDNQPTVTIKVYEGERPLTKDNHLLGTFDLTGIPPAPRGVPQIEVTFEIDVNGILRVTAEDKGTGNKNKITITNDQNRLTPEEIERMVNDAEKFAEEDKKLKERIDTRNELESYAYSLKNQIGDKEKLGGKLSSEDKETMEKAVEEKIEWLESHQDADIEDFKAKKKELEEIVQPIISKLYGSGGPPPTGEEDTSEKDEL
# These are yes or no findings as the source states them, for the method shown. In cells and extracts the contact can be indirect. Some results given as binding are weak or reduced against the parent protein; the word gives no strength.
# Target: Fc-glucagon (human) (UniProt P01275)
# Experiment: co-IP; Fc-glucagon or Fc alone captured on Protein A-Sepharose from secretory granule lysate of transfected α-TC1-6 cells, overnight at 4°C; eluted with 0.1 M glycine pH 2.8; immunoblot for GRP78 or histone H4 (histone H4 after treatment of the cells with GABA)
substance,measurement,value
glucose regulated protein 78 kDa (from UniProt P20029 20-655),binding,binds
